# Data reported in PubChem BioAssay AID2685 (National Center for Advancing Translational Sciences (NCATS), 2010).
# The list shows a part of the results. Further columns of the screen follow, without active or inactive calls. Most of these compounds were active or inconclusive in the main read-out, so they are no random draw. The note in brackets gives the kind of curve behind each potency; many fits are weak.
# Test: qHTS Assay for Lipid Storage Modulators in Drosophila S3 Cells;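 as to cell number change: cells counted by Cell Tracker Red CMTPX staining in the red channel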
# Conditions: BODIPY lipid droplet fluorescence, 18-24 h; for cell number change: measured here: cell count max response, cells fed with added oleic acid
# Method in brief: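 Drosophila S3 cells loaded with oleic acid (400 uM, as added) and compounds at several concentrations; lipid droplets imaged by 488-nm laser-scanning cytometry, 500–530 nm intensity and object ratio to cell channel. Percent activity normalized to 20 uM Triacsin C.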
# [1] = measured here: cell number channel AC50, cells fed with added oleic acid
# [2] = measured here: lipid fluorescence (Fed channel) AC50, cells fed with added oleic acid
SMILES,cell number change [%],AC50 [1],AC50 [2]
CCOC(=O)Cc1nnc(NC(=O)CSc2nnc3c4ccccc4n(C)c3n2)s1,-20.4,–,–
CN(C(=O)CSc1nc2ccc(Br)cc2c(=O)n1Cc1ccco1)C1CCS(=O)(=O)C1 (stereo not drawn),-41.2,"16.4 µM [falling, single point]","18.4 µM [falling, single point]"
COC(=O)C1CCC(=S)N1C(=O)c1ccccc1 (stereo not drawn),4.11,–,–
Cc1ccc(N=C2SCCCN2C(=O)c2ccco2)cc1Cl,9.54,–,"5.8 µM [falling, single point]"
Cn1nc(-c2ccc(Cl)cc2)c2cc(C(=O)NCC3CCCO3)sc21 (stereo not drawn),9.37,–,–
CC(CCc1ccccc1)NC(=O)CCN1N=C(c2ccccc2)CCC1=O (stereo not drawn),7.45,"0.461 µM [falling, single point]",–
CC1=CN2C(=NC(=O)CC2(C)C(=O)N(CC(=O)NC2CCCC2)Cc2ccc(Cl)cc2)C=C1 (stereo not drawn),-14.3,–,"0.206 µM [rising, single point]"
COc1cccc(-c2nnc(NC(=O)c3ccc(S(=O)(=O)N4CCOCC4)cc3)o2)c1,-4.32,–,"2.59 µM [rising, full curve, poor fit]"
CCCCc1nc(Cl)c(CO)n1Cc1ccc(-c2ccccc2-c2nn[nH]n2)cc1,15.5,–,–
O=C1CN(C(=O)c2cc3ccccc3oc2=O)C(c2ccccc2)c2cc(F)ccc2N1 (stereo not drawn),-0.929,–,"0.58 µM [rising, single point]"
CCCC(=O)Nc1ccc(NC(=O)Cc2ccccc2)cn1,38.6,"8.2 µM [rising, single point]",–
Cc1ccc(-c2nn3c(C)nnc3c3ccccc23)cc1S(=O)(=O)NCCO,1.29,–,–
CCOC(=O)NC(=S)Nc1ccc(C(C)(C)C)cc1Br,-29.1,–,"23.1 µM [falling, single point]"
Cc1cc(C(=O)NCC(C)C)c2ccccc2n1,44.2,–,–
CCOC(=O)c1[nH]c(C)c(C(=O)OCC(=O)N(Cc2ccccc2)C(C)C)c1C,2.82,–,"29.1 µM [falling, single point]"
CC(=O)Nc1ccc(S(=O)(=O)NCC2CCC(C(=O)NCCCOC(C)C)CC2)cc1 (stereo not drawn),–,–,"29.1 µM [rising, single point]"
Cc1ccc(-n2sc3ccccc3c2=O)cc1S(=O)(=O)N1CCCCC1,-208,"23.1 µM [falling, single point]",–
O=C(CCc1ccccc1)NCc1ccc(F)cc1,24.2,–,"29.1 µM [rising, single point]"
O=C(O)CN(Cc1ccco1)S(=O)(=O)c1ccccc1,-32.5,"29.1 µM [falling, single point]","18.4 µM [falling, partial curve]"
CCCN1C(=O)c2cc(C(=O)NCc3cccs3)ccc2C1O (stereo not drawn),-15.2,–,–
COc1ccc(S(=O)(=O)NCCSc2ccc(C)cc2)cc1OC,-0.129,–,–
CCCCn1c(N)c(N(CC(C)C)C(=O)C2=COCCO2)c(=O)[nH]c1=O,-0.58,–,"1.84 µM [falling, single point]"

# Limited to cell number change [%] and AC50 [2] (three entries from above):
SMILES,cell number change [%],AC50 [2]
CC(=O)Nc1ccc(S(=O)(=O)NCC2CCC(C(=O)NCCCOC(C)C)CC2)cc1 (stereo not drawn),–,"29.1 µM [rising, single point]"
Cc1ccc(-n2sc3ccccc3c2=O)cc1S(=O)(=O)N1CCCCC1,-208,–
O=C(CCc1ccccc1)NCc1ccc(F)cc1,24.2,"29.1 µM [rising, single point]"

# (list continues)

SMILES,cell number change [%],AC50 [1],AC50 [2]
COC(=O)C1=C(C)N(CCc2c[nH]c3ccccc23)C(=O)/C1=C\N(C)C,–,–,"1.46 µM [rising, full curve, poor fit]"
O=C(Nc1ccc(-n2ccc(C(F)(F)F)n2)cc1)c1cccs1,-14.9,–,"29.1 µM [falling, single point]"
O=C(NCc1ccccc1)c1ccc(CN2CCOCC2)cc1,-7.54,–,"16.4 µM [falling, single point]"
CCCOc1ccc(S(=O)(=O)n2cc(Br)c(=O)[nH]c2=O)cc1,2.39,"2.31 µM [falling, partial curve, poor fit]","0.58 µM [falling, partial curve, poor fit]"
Cc1ccc(C(=O)Nc2ccc(N3CCCC3)cc2)c(C)c1,12.6,–,"4.61 µM [rising, single point]"
CC(=O)c1ccc(N2CCN(C(=O)c3ccc4c(c3)OCO4)CC2)cc1,–,–,"3.98 µM [rising, full curve]"
Cc1cc(Cl)ccc1OCC(=O)NC(=S)Nc1ccccc1N1CCOCC1,–,–,"2.91 µM [rising, single point]"
CC(C)(C)C(=O)/C(=C/c1ccc(Cl)cc1)n1cncn1,-28.2,–,–
COC(=O)/C=C1/SC(=Nc2ccc(C)cc2C)NC1=O,15.8,–,"20.6 µM [rising, single point]"
CCOCCOC(=O)c1[nH]c2c(c1C)C(=O)CC(c1ccc(N(C)C)cc1)C2 (stereo not drawn),-1.73,–,"18.4 µM [falling, single point]"
Cc1ccc(CNC(=O)c2cc(-c3cc(C)cc(C)c3O)n[nH]2)cc1,-29.8,–,"29.1 µM [falling, single point]"
COc1cccc(-n2c(C)nc3c(cnn3-c3ccc(Cl)cc3)c2=O)c1,–,"3.66 µM [rising, partial curve]","3.26 µM [rising, partial curve]"
CN(C#N)c1nccc(-c2cccs2)n1,9.26,"3.26 µM [falling, single point]","5.17 µM [falling, single point]"
CCc1ccc(OCC2c3cc(OC)c(OC)cc3CCN2C(=S)NC)cc1 (stereo not drawn),12.6,–,–
COC(=O)C(Cc1c[nH]c2ccccc12)NC(=O)C1CC1 (stereo not drawn),-8.4,–,–
Cc1nn(C)c(C)c1/C=C(/C(=O)C(C)(C)C)n1cncn1,41.6,"5.17 µM [rising, full curve, poor fit]",–
CC(C)(C)c1ccc(-c2n[nH]c(=S)n2/N=C/c2ccncc2)cc1,-56.8,"29.1 µM [falling, single point]",–
CC(=O)OCC(=O)NCc1ccc2c(c1)OCO2,12.8,–,"6.51 µM [falling, single point]"
Cc1cnc(NC(=O)c2ccc(F)c(S(=O)(=O)N3CCOCC3)c2)s1,-8.69,–,"3.66 µM [rising, partial curve, poor fit]"
CCN(CC(=O)NCc1ccc(F)cc1)CC(=O)NC1CCCC1,-5.71,–,–
Cc1c(NS(=O)(=O)c2ccc(N)cc2)c(=O)n(-c2ccccc2)n1C,40.5,–,–
